Measurements reported in PubChem BioAssay AID1259405 (NCATS, 2018).

Aim: 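Knock-downs that lift recombinant protein yield in hamster ovary cells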 (primary screen)
Cells: Chinese hamster CHO-K1 ovary cells with stable secreted eGFP expression
Reagent: single siRNA against mouse genes, 0.8 pmol siRNA per well (2 µl of 400 nM stock)
Duration: 3 days
Detection: 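Percent of the per-plate non-targeting control median for intracellular GFP per well by laser scanning cytometry and for cell viability by ATP luminescence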
Scale: GFP, % of control: higher = more GFP per well, higher productivity; viability (ATP), % of control: higher = more viable cells (more ATP)
Rule for the call: 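a knock-down is called active if GFP reaches 120% or more of non-targeting control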
This is one part, drawn at random, of about 50,000 reagents tested. Of all reagents, about 4,000 (8%) got an active call. 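Mouse siRNA library applied to hamster cells; one well for each siRNA.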 A number with no mark means an inactive call. The numbers tell different reagents against one gene apart.

target gene,reagent no.,"GFP, % of control","viability (ATP), % of control"
Map2 (GeneID 17756),1,88.6,86.3
Map2 (GeneID 17756),2,48.6,53.8
Inpp4a (GeneID 269180),1,37,63.6
Inpp4a (GeneID 269180),2,94.5,77
Inpp4a (GeneID 269180),3,77.9,80.9
Ddost (GeneID 13200),1,97.8,65.8
Ddost (GeneID 13200),2,82.4,95
Ddost (GeneID 13200),3,110,118
Fsd1l (GeneID 319636),1,61.5,73.7
Fsd1l (GeneID 319636),2,107,77.1
Fsd1l (GeneID 319636),3,89.5,90
Ifnk (GeneID 387510),1,68,76.4
Ifnk (GeneID 387510),2,94.3,36.1
Ifnk (GeneID 387510),3,64.2,47.2
Efcc1 (GeneID 58229),1,72.9,79.5
Efcc1 (GeneID 58229),2,59.7,70.2
Efcc1 (GeneID 58229),3,77.1,68.7
Zfp428 (GeneID 232969),1,73.5,75.1
Zfp428 (GeneID 232969),2,108,63.3
Zfp428 (GeneID 232969),3,50.7,74.2
H3c8 (GeneID 97908),1,142 (active),107
H3c8 (GeneID 97908),2,75.9,90.5
H3c8 (GeneID 97908),3,53.2,54.8
Csnk1g2 (GeneID 103236),1,60.5,64.4

Quoted from above (2 entries):
target gene,reagent no.,"GFP, % of control","viability (ATP), % of control"
H3c8 (GeneID 97908),3,53.2,54.8
Csnk1g2 (GeneID 103236),1,60.5,64.4

The results go on:
target gene,reagent no.,"GFP, % of control","viability (ATP), % of control"
Prdm9 (GeneID 213389),1,52.6,57.1
Prdm9 (GeneID 213389),2,75,70
Prdm9 (GeneID 213389),3,90.9,83.9
Pqbp1 (GeneID 54633),1,106,145
Pqbp1 (GeneID 54633),2,51.8,87.8
Pqbp1 (GeneID 54633),3,81.6,90.1
Micu2 (GeneID 68514),1,63.2,63.3
Micu2 (GeneID 68514),2,52.8,64.8
Micu2 (GeneID 68514),3,42.9,34.2
Ccdc121 (GeneID 67656),1,147 (active),115
Ccdc121 (GeneID 67656),2,70.7,69.7
Ccdc121 (GeneID 67656),3,70.5,87.9
